The assay deals with HA-HIF1α P402A/P564A (UniProt Q16665). Briefly: co-IP; HEK293FT cells transfected with HA-HIF1α P402A/P564A plasmid or empty vector for 24 h; extracted proteins (20 μg) immunoprecipitated with an anti-HA antibody, SDS-PAGE and blotting with the indicated antibodies.

Amino acid sequences for entries named in this document (tags omitted). A change or cut given only in a name is not applied to a line headed by its entry.
UniProt Q16665: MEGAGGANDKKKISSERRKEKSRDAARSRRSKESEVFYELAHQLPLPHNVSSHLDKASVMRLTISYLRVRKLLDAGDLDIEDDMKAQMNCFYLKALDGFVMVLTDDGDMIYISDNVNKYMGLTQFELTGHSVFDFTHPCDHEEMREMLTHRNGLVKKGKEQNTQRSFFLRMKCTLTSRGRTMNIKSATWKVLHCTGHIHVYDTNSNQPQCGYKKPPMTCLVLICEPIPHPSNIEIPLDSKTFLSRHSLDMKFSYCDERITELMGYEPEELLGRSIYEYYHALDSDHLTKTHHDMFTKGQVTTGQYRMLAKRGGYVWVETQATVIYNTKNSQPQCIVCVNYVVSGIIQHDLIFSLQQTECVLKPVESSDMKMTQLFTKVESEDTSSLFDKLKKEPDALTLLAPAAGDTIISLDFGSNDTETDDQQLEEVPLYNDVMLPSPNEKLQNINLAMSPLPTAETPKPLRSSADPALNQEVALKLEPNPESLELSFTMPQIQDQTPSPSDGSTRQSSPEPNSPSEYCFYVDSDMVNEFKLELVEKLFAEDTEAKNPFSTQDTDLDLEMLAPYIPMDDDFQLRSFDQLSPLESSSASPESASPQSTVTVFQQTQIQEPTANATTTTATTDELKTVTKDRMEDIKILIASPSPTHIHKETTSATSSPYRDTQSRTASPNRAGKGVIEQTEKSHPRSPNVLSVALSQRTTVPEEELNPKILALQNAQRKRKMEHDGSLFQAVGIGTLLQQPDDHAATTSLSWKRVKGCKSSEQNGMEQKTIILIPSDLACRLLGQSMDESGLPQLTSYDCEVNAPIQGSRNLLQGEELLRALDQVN
UniProt Q9NS91: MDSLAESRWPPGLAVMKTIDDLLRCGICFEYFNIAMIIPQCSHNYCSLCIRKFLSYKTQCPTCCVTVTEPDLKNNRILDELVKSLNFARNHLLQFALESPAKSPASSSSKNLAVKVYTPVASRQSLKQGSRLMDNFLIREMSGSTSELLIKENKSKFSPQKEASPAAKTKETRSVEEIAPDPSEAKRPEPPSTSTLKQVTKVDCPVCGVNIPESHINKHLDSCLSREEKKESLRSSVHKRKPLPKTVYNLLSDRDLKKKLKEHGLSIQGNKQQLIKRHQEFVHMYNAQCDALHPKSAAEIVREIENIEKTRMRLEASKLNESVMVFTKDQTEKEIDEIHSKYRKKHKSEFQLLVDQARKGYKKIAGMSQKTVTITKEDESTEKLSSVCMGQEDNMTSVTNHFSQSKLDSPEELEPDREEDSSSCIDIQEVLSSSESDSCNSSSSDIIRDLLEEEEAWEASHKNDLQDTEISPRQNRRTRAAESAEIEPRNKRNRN
UniProt P04406: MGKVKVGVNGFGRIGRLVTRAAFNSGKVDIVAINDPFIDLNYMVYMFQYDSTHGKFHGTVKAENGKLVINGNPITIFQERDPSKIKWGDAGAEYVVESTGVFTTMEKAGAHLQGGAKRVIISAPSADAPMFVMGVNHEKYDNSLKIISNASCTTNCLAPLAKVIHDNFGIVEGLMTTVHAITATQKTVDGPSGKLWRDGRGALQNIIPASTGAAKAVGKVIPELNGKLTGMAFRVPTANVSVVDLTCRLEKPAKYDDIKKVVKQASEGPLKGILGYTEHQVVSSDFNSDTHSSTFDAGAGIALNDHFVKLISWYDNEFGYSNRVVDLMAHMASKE
UniProt P12004: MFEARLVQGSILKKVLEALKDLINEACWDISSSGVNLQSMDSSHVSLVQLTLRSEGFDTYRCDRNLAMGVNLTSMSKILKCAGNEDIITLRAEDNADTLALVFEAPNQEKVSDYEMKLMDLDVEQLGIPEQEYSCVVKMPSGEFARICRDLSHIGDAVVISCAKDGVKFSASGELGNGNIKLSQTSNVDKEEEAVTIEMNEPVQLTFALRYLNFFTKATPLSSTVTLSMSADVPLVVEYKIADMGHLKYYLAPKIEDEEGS

Results are given in words; binding and its absence hold for the method and conditions named. Binding seen in cells or lysates may run through a third protein. Some entries that bind do so weakly or less than the wild type.

For RAD18 (from UniProt Q9NS91 1-495), the binding result is given as “binds”.

With GAPDH (from UniProt P04406 1-335), the binding result is on record as “no binding”.

In the case of PCNA (from UniProt P12004 1-261), the binding result is listed as “binds”.

The record behind these values is publication PMC11700837.
